Data reported in PubChem BioAssay AID485314 (National Center for Advancing Translational Sciences (NCATS), 2010).
The campaign covered roughly 340,000 compounds. About 4,500 (1.3%) were called active. Inconclusive means that the source gave no clear call. Such entries were picked first, then a sample of the others. Calls follow the shape of the dose curve; as a rule, active = well fitted inhibition curve with a large enough effect; inconclusive = small, poorly fitted or top-dose-only effect, or another doubt; inactive = no such curve, though single readings can be large or run the other way. Potencies beside an inconclusive call are fits to weak or partial responses and may not hold up.

These molecules were tested against DNA polymerase beta (Homo sapiens) (UniProt P06746) (assay: qHTS Assay for Inhibitors of DNA Polymerase Beta). Details: Pol beta primer extension/strand displacement, fluorescence kinetic; activity change, negative = inhibition: at 114 µM (top of the series).
Outline: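 Enzyme-only controls used 10 nM Pol beta; buffer lacking enzyme served as negative control. Compound preincubated 15 min, then 50 nM substrate added; 0 and 10 min reads at room temperature.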
% is scaled to controls: 0 for no effect and ±100 for the full control effect; potency is read from the fitted curve at half-maximal effect.

Potency, inactive:
O=C(NNC(=S)Nc1ccccc1)c1ccncc1
CN1C(=O)S/C(=C\c2ccccc2OCc2ccc(C(=O)O)cc2)C1=O
CCN(CC)c1ccc(C=C2C(=O)OC3(CCCCC3)OC2=O)cc1
O=C(COC(=O)c1ccc([N+](=O)[O-])o1)NC1CCS(=O)(=O)C1 (stereo not drawn)
COc1ccc(/C=C2\CCCC3C2=NN(C(=O)CSc2ncn[nH]2)C3c2ccc(OC)cc2)cc1 (stereo not drawn)
COc1cccc(OCCn2cc(C(C)=O)c3ccccc32)c1
Cc1ccc(OC(=O)CCC(=O)Nc2ccc(Br)cc2)cc1

Potency, active:
Oc1ccc(C2=Nn3c(nnc3-c3ccco3)SC2)cc1O 3.98 µM

Potency, inconclusive:
CC(NC(=O)c1ccc(N2Cc3ccccc3Oc3ncccc32)s1)c1ccccc1 (stereo not drawn) 14.1 µM [inhibitor, partial curve]
CN(C)C(=O)CCC(=O)N1CCCC(C(=O)c2ccc3c4c(cccc24)CC3)C1 (stereo not drawn) 1.12 µM [inhibitor, full curve, poor fit]
O=C(NNC(=S)NCc1ccccc1)c1ccc(Br)o1 39.8 µM [inhibitor, single point]
N/C(=N\OC(=O)c1cc(Cl)ccc1Cl)c1cccnc1 39.8 µM [inhibitor, full curve]
COc1ccc(Cl)cc1NC(=O)CN(C)C1CCCCC1 0.1 µM [inhibitor, full curve, poor fit]
O=C(NC1CCCCC1)C(=S)N1CCCC1 39.8 µM [inhibitor, partial curve]
COc1ccc(Sc2ccc(NC(=O)c3ccccc3Cl)cc2C#N)cc1 0.562 µM [inhibitor, full curve, poor fit]
Fc1ccc2nc(Nc3nc4c(F)cccc4s3)sc2c1 22.4 µM [inhibitor, full curve]
O=C(COc1cccc2cccnc12)NCc1cccs1 20 µM [inhibitor, full curve]
Cc1ccnc(NC(=O)/C=C/c2ccccc2[N+](=O)[O-])c1 25.1 µM [inhibitor, partial curve, poor fit]
Cc1ccc2c(c1)C(=O)C(=O)N2CCCOc1ccccc1C 79.4 µM [inhibitor, single point]
Cc1ccc2c(c1)C(c1ccc(F)cc1)N(C(=O)c1cc3ccccc3oc1=O)CC(=O)N2 (stereo not drawn) 89.1 µM [inhibitor, single point]
COc1ccc2[nH]c(=O)c(-c3noc(-c4ccc(F)cc4)n3)cc2c1 2.24 µM [inhibitor, full curve]
CC(NC(=O)C1CCN(C(=O)N2CCOc3ccccc32)CC1)c1ccccc1 (stereo not drawn) 100 µM [inhibitor, single point]
CC(C)Oc1ccc(C(=O)NC2CCS(=O)(=O)C2)cc1 (stereo not drawn) 6.31 µM [inhibitor, partial curve]
COc1ccc(C2(O)CCN(CC(=O)Nc3nc(-c4ccccc4)cs3)CC2)cc1 79.4 µM [inhibitor, single point]
COc1ccc2[nH]c(=O)c(C(=O)O)cc2c1 25.1 µM [inhibitor, partial curve, poor fit]
Cc1ccc(C(=O)c2cn(CC(=O)Nc3ccc4c(c3)OCCO4)c3nc(C)ccc3c2=O)cc1 11.2 µM [inhibitor, full curve]
O=C(Nc1ccccc1Cl)N1CCCN(c2nc(-c3ccccc3)ns2)CC1 89.1 µM [inhibitor, single point]
Cc1ccc2c(c1)C(=O)c1c(C(=O)O)cccc1-2 39.8 µM [inhibitor, partial curve]
COc1ccc(Oc2ncnc3c2oc2ccccc23)cc1 89.1 µM [inhibitor, single point]
COc1ccc(N2CCN(CNC(=O)c3ccccc3)CC2)cc1 100 µM [inhibitor, single point]
Cc1cc(C)c(S(=O)(=O)N2C=CC(C(F)(F)F)=NCC2)c(C)c1 89.1 µM [inhibitor, single point]
CCOc1ccc(N2C=Nc3ccc(OCC)cc3C2)cc1 56.2 µM [inhibitor, partial curve, poor fit]
Fc1cccc2sc(Nc3nnc(-c4ccccc4)o3)nc12 25.1 µM [inhibitor, full curve, poor fit]
Cc1cc(C)cc(OC(C)C(=O)Nc2nc3c(s2)CCCC3)c1 (stereo not drawn) 89.1 µM [inhibitor, single point]
CC(C)(C)Cc1nnc(NC(=O)Cc2cccs2)s1 7.08 µM [inhibitor, partial curve]
CC1CCN(c2nc3c(S(=O)(=O)c4cccc(Cl)c4)nnn3c3ccsc23)CC1 0.794 µM [inhibitor, full curve, poor fit]
CCc1cc(=O)oc2cc(OC(C)C(=O)NCC3CCC(C(=O)O)CC3)c(Cl)cc12 (stereo not drawn) 100 µM [inhibitor, single point]
O=C(COC(=O)c1ccc(NS(=O)(=O)c2cccs2)cc1O)Nc1nc2ccccc2s1 50.1 µM [inhibitor, partial curve]
O=C1NCCN(Cc2ccc(Cl)c(F)c2)C1CC(=O)N1CCCO1 (stereo not drawn) 44.7 µM [inhibitor, partial curve]
O=C(/C=C/c1ccco1)NC1CCCC1 20 µM [inhibitor, full curve]
O=C(NN1CCOCC1)c1cc(-c2ccc(Cl)c(Cl)c2)nc2ccccc12 15.8 µM [inhibitor, single point]
CN(C)c1ccc(N=Nc2ccccc2C(=O)OCC(=O)Nc2ccccc2C(F)(F)F)cc1 31.6 µM [inhibitor, single point]

For reference, part of the list above:
Potency, inconclusive:
Cc1ccc2c(c1)C(=O)C(=O)N2CCCOc1ccccc1C 79.4 µM [inhibitor, single point]
Cc1ccc2c(c1)C(c1ccc(F)cc1)N(C(=O)c1cc3ccccc3oc1=O)CC(=O)N2 (stereo not drawn) 89.1 µM [inhibitor, single point]
COc1ccc2[nH]c(=O)c(-c3noc(-c4ccc(F)cc4)n3)cc2c1 2.24 µM [inhibitor, full curve]
CC(NC(=O)C1CCN(C(=O)N2CCOc3ccccc32)CC1)c1ccccc1 (stereo not drawn) 100 µM [inhibitor, single point]
CC(C)Oc1ccc(C(=O)NC2CCS(=O)(=O)C2)cc1 (stereo not drawn) 6.31 µM [inhibitor, partial curve]
COc1ccc(C2(O)CCN(CC(=O)Nc3nc(-c4ccccc4)cs3)CC2)cc1 79.4 µM [inhibitor, single point]
COc1ccc2[nH]c(=O)c(C(=O)O)cc2c1 25.1 µM [inhibitor, partial curve, poor fit]
Cc1ccc(C(=O)c2cn(CC(=O)Nc3ccc4c(c3)OCCO4)c3nc(C)ccc3c2=O)cc1 11.2 µM [inhibitor, full curve]
O=C(Nc1ccccc1Cl)N1CCCN(c2nc(-c3ccccc3)ns2)CC1 89.1 µM [inhibitor, single point]
Cc1ccc2c(c1)C(=O)c1c(C(=O)O)cccc1-2 39.8 µM [inhibitor, partial curve]
COc1ccc(Oc2ncnc3c2oc2ccccc23)cc1 89.1 µM [inhibitor, single point]

Next part:

Activity change, negative = inhibition, inconclusive:
COc1ccc2c(=O)cc(-c3cccnc3)oc2c1OC -36.2% [inhibitor]
